Experimental data from publication PMC5602674.
These are yes or no findings as the source states them, for the method shown. Binding seen in cells or lysates may run through a third protein.

Protein sequences, listed by entry. Tags and fused reporters are not part of them.
UniProt P23772: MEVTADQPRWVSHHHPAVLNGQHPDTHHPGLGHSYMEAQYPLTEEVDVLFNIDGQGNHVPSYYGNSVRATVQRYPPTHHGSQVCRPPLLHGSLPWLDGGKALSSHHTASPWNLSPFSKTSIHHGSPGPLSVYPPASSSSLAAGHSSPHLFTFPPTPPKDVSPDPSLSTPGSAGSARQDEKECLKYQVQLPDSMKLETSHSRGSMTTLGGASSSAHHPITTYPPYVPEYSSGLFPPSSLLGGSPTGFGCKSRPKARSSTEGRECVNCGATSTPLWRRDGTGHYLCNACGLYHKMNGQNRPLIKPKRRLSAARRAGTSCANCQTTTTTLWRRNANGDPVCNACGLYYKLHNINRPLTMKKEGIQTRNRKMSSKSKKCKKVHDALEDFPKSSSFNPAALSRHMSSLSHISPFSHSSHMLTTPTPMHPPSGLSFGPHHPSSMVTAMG

B1: Stat6 (protein, UniProt P52633 1-837)
chain: MSLWGLISKMSPEKLQRLYVDFPQRLRHLLADWLESQPWEFLVGSDAFCYNMASALLSATVQRLQATAGEQGKGNSILPHISTLESIYQRDPLKLVATIRQILQGEKKAVIEEFRHLPGPFHRKQEELKFTTALGRLQHRVRETRLLRESLQQGAKTGQVSLQNLIDPPVNGPGPSEDLATMLQGTVGDLEATQALVLKRIQIWKRQQQLAGNGTPFEESLAGLQERCESLVEIYSQLQQEIGAASGELEPKTRASLISRLDEVLRTLVTSSFLVEKQPPQVLKTQTKFQAGVRFLLGLQFLGTSAKPPMVRADMVTEKQARELSLAQGPGTGVESTGEIMNNTVPLENSIPSNCCSALFKNLLLKKIKRCERKGTESVTEEKCAVLFSTSFTLGPNKLLIQLQALSLPLVVIVHGNQDNNAKATILWDNAFSEMDRVPFVVAERVPWEKMCETLNLKFMAEVGTSRGLLPEHFLFLAQKIFNDNSLSVEAFQHRCVSWSQFNKEILLGRGFTFWQWFDGVLDLTKRCLRSYWSDRLIIGFISKQYVTSLLLNEPDGTFLLRFSDSEIGGITIAHVIRGQDGSSQIENIQPFSAKDLSIRSLGDRIRDLAQLKNLYPKKPKDEAFRSHYKPEQMGKDGRGYVSTTIKMTVERDQPLPTPEPQMPAMVPPYDLGMAPDASMQLSSDMGYPPQSIHSFQSLEESMSVLPSFQEPHLQMPPNMSQITMPFDQPHPQGLLQCQSQEHAVSSPEPMLCSDVTMVEDSCLTQPVGGFPQGTWVSEDMYPPLMPPTEQDLTKLLLENQGEAGGSLGSQPLLQPSPYGQSGISLSHLDLRTNPSW

Biological target: p62 (mouse (endogenous in TH9 cells)) (UniProt Q64337)
Assay: proximity ligation; Duolink in situ PLA on fixed, permeabilised TH9 cells after 24 h of differentiation; endogenous proteins; control antibodies gave no foci

Molecule | binding
GATA-3 (from UniProt P23772 1-443) | no binding
B1 | no binding
